Data published in patent US20230141052A1.
Results are given in words; binding and its absence hold for the method and conditions named. Some entries that bind do so weakly or less than the wild type. Where a sequence is shown, tags or fusion partners need not be part of it.

Sequences of proteins named here, by UniProt entry; tags and fusion partners are left off. Residues count along the entry.
UniProt P06127, residues 25-372: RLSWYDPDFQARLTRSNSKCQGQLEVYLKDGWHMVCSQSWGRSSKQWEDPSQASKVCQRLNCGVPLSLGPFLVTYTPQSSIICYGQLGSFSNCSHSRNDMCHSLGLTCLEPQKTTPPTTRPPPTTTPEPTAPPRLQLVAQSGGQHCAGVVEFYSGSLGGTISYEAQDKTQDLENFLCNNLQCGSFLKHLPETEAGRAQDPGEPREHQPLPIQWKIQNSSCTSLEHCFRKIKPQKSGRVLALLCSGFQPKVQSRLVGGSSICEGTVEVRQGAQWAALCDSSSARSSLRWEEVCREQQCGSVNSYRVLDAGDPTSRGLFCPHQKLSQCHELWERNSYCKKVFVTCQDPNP

Key:
[1] = target: Alexa647-conjugated CD5 protein (UniProt P06127); experiment: flow cytometry of transfected HEK293T cells stained with labeled CD5
[2] = target: Alexa647-conjugated CD5 protein (UniProt P06127); experiment: flow cytometry of HEK293 cells stained with Alexa647-conjugated CD5 protein

B1: CD5-intron-fcr-PI3K (ATAK) recombinant chimeric fusion receptor protein (receptor)
chain: EIQLVQSGGGLVKPGGSVRISCAASGYTFTNYGMNWVRQAPGKGLEWMGWINTHTGEPTYADSFKGRFTFSLDDSKNTAYLQINSLRAEDTAVYFCTRRGYDWYFDVWGQGTTVTVSSGGGGSGGGGSGGGGSDIQMTQSPSSLSASVGDRVTITCRASQDINSYLSWFQQKPGKAPKTLIYRANRLESGVPSRFSGSGSGTDYTLTISSLQYEDFGIYYCQQYDESPWTFGGGTKLEIKSGGGGSGALSNSIMYFSHFVPVFLPAKPTTTPAPRPPTPAPTIASQPLSLRPEACRPAAGGAVHTRGLDIYIWAPLAGTCGVLLLSLVITLYCRRLKIQVRKAAITSYEKSDGVYTGLSTRNQETYETLKHEKPPQGSGSYEDMRGILYAAPQLRSIRGQPGPNHEEDADSYENM
- binding [1]: binds
- binding [2]: binds
